Reference: article PMC10315276
No constants are given. Whether binding was seen depends on the method and setting. Binding seen in cells or lysates may run through a third protein. Binding calls can cover weak binding; strength is not graded here.

The chains behind the UniProt entries cited, without tags or fusion partners. Where a name states a change or a piece, a line headed by the entry shows the natural chain unless it says otherwise.
UniProt A0A286S6L1: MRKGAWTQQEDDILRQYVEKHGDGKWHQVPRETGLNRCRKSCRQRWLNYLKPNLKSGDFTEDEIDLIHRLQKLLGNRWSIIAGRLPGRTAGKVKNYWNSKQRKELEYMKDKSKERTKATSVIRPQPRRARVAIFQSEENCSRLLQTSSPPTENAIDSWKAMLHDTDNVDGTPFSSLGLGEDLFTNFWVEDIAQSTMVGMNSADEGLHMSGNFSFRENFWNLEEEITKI

Molecular target: PyERF3-CLuc (pear (Pyrus))
Test: split reporter; luciferase complementation in N. benthamiana leaves; PyMYB114-Nluc and PyERF3-Cluc coinfiltrated with increasing PyERF4.1/PyERF4.2-pSAK277

PyMYB114-Nluc (from UniProt A0A286S6L1) was tested, and the binding was “binds”.
